From paper PMC7299341 come the findings set out here.

This assay concerns the target Warts with an N-terminal Myc tag (Myc-Wts) (Drosophila melanogaster). Briefly: co-IP; S2 cells co-transfected with the tagged constructs (pUAST vectors with ubiquitin-Gal4); cell extracts immunoprecipitated with anti-Flag or anti-Myc antibodies, Western blot. In general terms: In western blotting, separated proteins are transferred to a membrane and probed.

Results are given in words; binding and its absence hold for the method and conditions named. In cells and extracts the contact can be indirect. A result given as binding can be weak or reduced; the word gives no strength.

B1: Yorkie (Yki) (protein, UniProt Q45VV3 1-395)
chain: MLTTMSASSNTNSLIEKEIDDEDMLSPIKSNNLVVRVNQDTDDNLQALFDSVLNPGDAKRPLQLPLRMRKLPNSFFTPPAPSHSRANSADSTYDAGSQSSINIGNKASIVQQPDGQSPIAAIPQLQIQPSPQHSRLAIHHSRARSSPASLQQNYNVRARSDAAAANNPNANPSSQQQPAGPTFPENSAQEFPSGAPASSAIDLDAMNTCMSQDIPMSMQTVHKKQRSYDVISPIQLNRQLGALPPGWEQAKTNDGQIYYLNHTTKSTQWEDPRIQYRQQQQILMAERIKQNDVLQTTKQTTTSTIANNLGPLPDGWEQAVTESGDLYFINHIDRTTSWNDPRMQSGLSVLDCPDNLVSSLQIEDNLCSNLFNDAQAIVNPPSSHKPDDLEWYKIN
For B1, the binding result is reported as “binds”.
